Source: PubChem BioAssay AID540256 (National Center for Advancing Translational Sciences (NCATS), 2011)
Among all 300,000 compounds or so, about 3,700 (1.2%) were called active. The shares of active, inactive and inconclusive entries below differ from those in the screen. Calls follow the shape of the full dose curve; tested in HEK293 cells. A potency beside an inconclusive call is a rough fit, not a confirmed value.
% is scaled to controls: 0 for no effect and ±100 for the full control effect; potency is read from the fitted curve at half-maximal effect.

Test: qHTS for Inhibitors of binding or entry into cells for Lassa Virus; also: nearly all actives have a fitted effect of over 50% in size
Conditions: Lassa virus pseudotype entry inhibition, cell reporter; activity change, negative = inhibition: at 37.9 µM (top of the series) unless noted
With Cc1ccc(-n2c(SCC(=O)NCc3ccco3)nc3c(sc4ccccc43)c2=O)cc1 the Potency was inconclusive: 6.31 µM [inhibitor, partial curve, poor fit].
For COC(=O)CCC(=O)NC(=S)Nc1sc(C)c(C)c1C(N)=O, the Potency was inconclusive: 0.517 µM [inhibitor, full curve, poor fit].
With CC(C)c1ccc(OCC(=O)NCCO)cc1 the Potency was inconclusive: 11.6 µM [activator, partial curve, poor fit].
In the case of Cc1cccc(C(C)C)c1NC(=O)Cn1c(=O)oc2cc(S(=O)(=O)N3CCCC3)ccc21, the “activity change, negative = inhibition” value is reported as inactive: 0.657% [at 46.1 µM].
With CN(C)c1cccc(C(=O)OC(C(=O)Nc2ccc(Cl)cc2C(F)(F)F)c2ccccc2)c1 (stereo not given) the Potency was inconclusive: 2.51 µM [inhibitor, partial curve].
With Nc1ccc(C(=O)N2CCN(S(=O)(=O)c3ccc(Br)cc3)CC2)cc1[N+](=O)[O-] the “activity change, negative = inhibition” value was inactive: -2.5%.
For COc1ccc(NC(=O)C2CCN(S(=O)(=O)c3ccc4c(c3)CCCC(=O)N4)CC2)cc1OC, the “activity change, negative = inhibition” value was inactive: -17.5% [at 46.1 µM].
For CCc1ccccc1N(CC)C(=O)c1c(C)oc2ncn(C)c(=O)c12, the “activity change, negative = inhibition” value was inactive: 27.6% [at 46.1 µM].
In the case of CCOC(=O)c1cnc(Nc2nc3ccccc3o2)nc1CN1CCN(C)CC1, the Potency is reported as inconclusive: 35.5 µM [inhibitor, single point].
In the case of CCOC(=O)C1CCN(S(=O)(=O)c2ccc(C(C)(C)C)cc2)CC1, the Potency is reported as inconclusive: 35.5 µM [inhibitor, single point].
In the case of CCn1c(C)c(C)c2cc(C(=O)NCCCN3CCCCCC3)ccc21, the Potency is reported as inconclusive: 20 µM [inhibitor, single point].
In the case of COc1ccc(CN2C(=O)CC(=O)NC2=O)cc1, the “activity change, negative = inhibition” value is reported as inactive: -29.4%.
With CCNS(=O)(=O)c1ccc(NC(=O)CC(C)c2ccccc2)cc1 (stereo not given) the Potency was inconclusive: 0.651 µM [activator, full curve, poor fit].
For Cc1ccc(-c2nc(S(=O)(=O)c3ccccc3)c(N3CCN(c4ccccc4)CC3)o2)cc1, the “activity change, negative = inhibition” value was inactive: -7.96% [at 46.1 µM].
In the case of COc1cc(C)ccc1OCCCOc1ccccc1Cl, the Potency is reported as inconclusive: 2.24 µM [activator, partial curve, poor fit].
With CCN(C1CCCCC1)S(=O)(=O)c1cc(C)ccc1OC the Potency was inconclusive: 4.61 µM [activator, single point].
With COc1cccc(N/C(SCc2ccccc2F)=C(/C#N)C(=O)NCc2cccs2)c1 the Potency was inconclusive: 15.8 µM [inhibitor, single point].
In the case of COc1ccc(-c2oc3ncn4nc(COc5cccc(C)c5C)nc4c3c2-c2ccc(OC)cc2)cc1, the Potency is reported as inconclusive: 35.5 µM [inhibitor, single point].
With COc1cccc(CNC(=O)C2=C(C)C(=O)OC23CCN(C(C)=O)CC3)c1OC the “activity change, negative = inhibition” value was inactive: 13.2% [at 46.1 µM].
With CCn1c(-c2nonc2N)nc2c(C#CC(C)(C)O)ncc(OC3CCNCC3)c21 the Potency was inconclusive: 0.005 µM [inhibitor, full curve, poor fit].
With FC(F)(F)c1cnc2c(-c3ccccc3)n[nH]c2c1 the “activity change, negative = inhibition” value was inactive: -31.1%.
In the case of COc1cc(NC(=O)/C=C/c2ccccc2[N+](=O)[O-])cc(OC)c1, the “activity change, negative = inhibition” value is reported as inactive: 13.8%.
With Cc1ccc2c(c1)C(=O)CC(c1ccccc1)S2 (stereo not given) the Potency was inconclusive: 7.08 µM [inhibitor, full curve, poor fit].
In the case of CC12CCC(C(=O)NCc3ccccc3)(OC1=O)C2(C)C (stereo not given), the “activity change, negative = inhibition” value is reported as inactive: -0.0754%.
In the case of COc1ccc(NC(=S)Nc2cc(S(=O)(=O)N3CCCCC3)ccc2OC)cc1, the “activity change, negative = inhibition” value is reported as inactive: -2.86%.
With COc1ccc(/C=N/NC(=O)c2sc(C)nc2C)cc1 the Potency was inconclusive: 2.82 µM [inhibitor, full curve].
With Cc1cc(C)c(C#N)c(SCC(O)COc2ccc(Br)cc2)n1 (stereo not given) the “activity change, negative = inhibition” value was inactive: 10.5%.
For O=C(Nc1ccnn1C1CCN(C(=O)c2cnsn2)CC1)c1cccc(F)c1, the Potency was inconclusive: 5.62 µM [activator, single point].
For COc1ccc2ccccc2c1CN1CCN(C(=O)c2ccco2)CC1, the Potency was inconclusive: 35.5 µM [inhibitor, single point].
For Cc1nnc(Nc2ccc(F)cc2)c2ccccc12, the “activity change, negative = inhibition” value was inactive: 18.2%.
In the case of Cc1ccccc1N1CCN(c2ncnc3scc(-c4cccs4)c23)CC1, the “activity change, negative = inhibition” value is reported as inactive: -42.9%.
In the case of O=C(CSc1nnc(CCCO)n1-c1ccccc1)NCCc1ccccc1, the “activity change, negative = inhibition” value is reported as inactive: 16.2%.
With COCc1c(C(=O)NC2CCCCCC2)oc2ccccc12 the “activity change, negative = inhibition” value was inactive: -0.128% [at 46.1 µM].
In the case of Cc1ccc(S(=O)(=O)CC(=O)c2ccc3c(c2)OCCO3)cc1, the “activity change, negative = inhibition” value is reported as inactive: 9.98% [at 46.1 µM].
With Cc1ccc(-c2cc(C(=O)NCCCN3CCCC3)c3ccccc3n2)cc1C the Potency was inconclusive: 28.2 µM [inhibitor, single point].
For Cc1ccc(NC(=S)Nc2ccc(Cl)c(Cl)c2)c(OC(F)F)c1, the “activity change, negative = inhibition” value was inactive: 2.32%.
With CCOC(CC(=O)NNC(=O)c1c(-c2c(Cl)cccc2Cl)noc1C)OCC the Potency was inconclusive: 1.78 µM [activator, partial curve, poor fit].
For Fc1ccc(CSc2nnc(-c3cccs3)o2)cc1, the Potency was inconclusive: 0.231 µM [activator, full curve, poor fit].
In the case of C=CCC(C)(NCc1ccccc1)c1ccc(C)cc1 (stereo not given), the Potency is reported as inconclusive: 12.6 µM [inhibitor, partial curve, poor fit].
With Cc1cc(C)cc(NC(=O)c2cc(=O)c3ccccc3o2)c1 the “activity change, negative = inhibition” value was inactive: 13.6% [at 46.1 µM].
For CC(CC(=O)c1cccs1)CC(=O)c1cccs1, the “activity change, negative = inhibition” value was inactive: 25.3%.
In the case of COc1ccc(-c2cc(=O)c3c(C)cc(O)cc3o2)cc1, the Potency is reported as inconclusive: 15.8 µM [inhibitor, single point].
For O=C(c1ccccc1)c1c[nH]c2ccccc12, the “activity change, negative = inhibition” value was inactive: 16.3% [at 46.1 µM].
For O=C(Cn1nc(-c2ccccc2)nc1-c1ccccc1)N1CCOCC1, the Potency was inconclusive: 1.16 µM [inhibitor, single point].
With Nc1nc(-n2cnnc2)nn1-c1ccccc1 the “activity change, negative = inhibition” value was inactive: 23%.
In the case of CC(C)c1ccc(N2C(=O)CSC23C(=O)N(Cc2cccc(F)c2)c2ccccc23)cc1 (stereo not given), the “activity change, negative = inhibition” value is reported as inactive: -2.28% [at 46.1 µM].
In the case of CN(C)CC(O)COc1cccc(OCC(O)CN(C)C)c1 (stereo not given), the “activity change, negative = inhibition” value is reported as inactive: -7.93%.
In the case of c1ccc(CCCN2CCOCC2)cc1, the Potency is reported as inconclusive: 35.5 µM [activator, single point].
For C=CCn1cccc(/C=C/C(=O)c2ccc(C(C)(C)C)cc2)c1=S, the Potency was active: 16.4 µM.
In the case of O=C(/C=C/c1ccc(Cl)cc1)Nc1ccc(N2CCOCC2)cc1, the “activity change, negative = inhibition” value is reported as inactive: 4.86%.
